At least one structure is not confirmed: it was looked up by name or label, or the drawing left a doubt.
Tested on: PBMC and endothelial cell co-culture
Assay: SAg system: PBMC and endothelial cell co-culture stimulated with superantigen
Assay type: cell-based, human

SMILES	activity in the SAg system (24 hr SAg stimulation, non-toxic concentrations)	CD69 expression (SAg system)	E-selectin expression (SAg system)
C=CC[C@@H]1/C=C(\C)C[C@H](C)C[C@H](OC)[C@H]2O[C@@](O)(C(=O)C(=O)N3CCCC[C@H]3C(=O)O[C@H](/C(C)=C/[C@@H]3CC[C@@H](O)[C@H](OC)C3)[C@H](C)[C@@H](O)CC1=O)[C@H](C)C[C@@H]2OC [FK-506]	potent inhibitors	–	–
CO[C@H]1C[C@@H]2CC[C@@H](C)[C@@](O)(O2)C(=O)C(=O)N2CCCC[C@H]2C(=O)O[C@H]([C@H](C)C[C@@H]2CC[C@@H](O)[C@H](OC)C2)CC(=O)[C@H](C)/C=C(\C)[C@@H](O)[C@@H](OC)C(=O)[C@H](C)C[C@H](C)/C=C/C=C/C=C/1C [rapamycin]	–	upregulating	upregulating

— US20070072246A1, “Cell-based assays for determining drug action” (priority 2003, published 2007)
